Test results: publication PMC8788068
These are yes or no findings as the source states them, for the method shown. Binding seen in cells or lysates may run through a third protein. Some binding calls cover weakened binding; strength is not graded here. Each block holds one binder with its values, some of them ahead of it.

Protein sequences, listed by entry. Tags and fused reporters are not part of them.
UniProt P15924: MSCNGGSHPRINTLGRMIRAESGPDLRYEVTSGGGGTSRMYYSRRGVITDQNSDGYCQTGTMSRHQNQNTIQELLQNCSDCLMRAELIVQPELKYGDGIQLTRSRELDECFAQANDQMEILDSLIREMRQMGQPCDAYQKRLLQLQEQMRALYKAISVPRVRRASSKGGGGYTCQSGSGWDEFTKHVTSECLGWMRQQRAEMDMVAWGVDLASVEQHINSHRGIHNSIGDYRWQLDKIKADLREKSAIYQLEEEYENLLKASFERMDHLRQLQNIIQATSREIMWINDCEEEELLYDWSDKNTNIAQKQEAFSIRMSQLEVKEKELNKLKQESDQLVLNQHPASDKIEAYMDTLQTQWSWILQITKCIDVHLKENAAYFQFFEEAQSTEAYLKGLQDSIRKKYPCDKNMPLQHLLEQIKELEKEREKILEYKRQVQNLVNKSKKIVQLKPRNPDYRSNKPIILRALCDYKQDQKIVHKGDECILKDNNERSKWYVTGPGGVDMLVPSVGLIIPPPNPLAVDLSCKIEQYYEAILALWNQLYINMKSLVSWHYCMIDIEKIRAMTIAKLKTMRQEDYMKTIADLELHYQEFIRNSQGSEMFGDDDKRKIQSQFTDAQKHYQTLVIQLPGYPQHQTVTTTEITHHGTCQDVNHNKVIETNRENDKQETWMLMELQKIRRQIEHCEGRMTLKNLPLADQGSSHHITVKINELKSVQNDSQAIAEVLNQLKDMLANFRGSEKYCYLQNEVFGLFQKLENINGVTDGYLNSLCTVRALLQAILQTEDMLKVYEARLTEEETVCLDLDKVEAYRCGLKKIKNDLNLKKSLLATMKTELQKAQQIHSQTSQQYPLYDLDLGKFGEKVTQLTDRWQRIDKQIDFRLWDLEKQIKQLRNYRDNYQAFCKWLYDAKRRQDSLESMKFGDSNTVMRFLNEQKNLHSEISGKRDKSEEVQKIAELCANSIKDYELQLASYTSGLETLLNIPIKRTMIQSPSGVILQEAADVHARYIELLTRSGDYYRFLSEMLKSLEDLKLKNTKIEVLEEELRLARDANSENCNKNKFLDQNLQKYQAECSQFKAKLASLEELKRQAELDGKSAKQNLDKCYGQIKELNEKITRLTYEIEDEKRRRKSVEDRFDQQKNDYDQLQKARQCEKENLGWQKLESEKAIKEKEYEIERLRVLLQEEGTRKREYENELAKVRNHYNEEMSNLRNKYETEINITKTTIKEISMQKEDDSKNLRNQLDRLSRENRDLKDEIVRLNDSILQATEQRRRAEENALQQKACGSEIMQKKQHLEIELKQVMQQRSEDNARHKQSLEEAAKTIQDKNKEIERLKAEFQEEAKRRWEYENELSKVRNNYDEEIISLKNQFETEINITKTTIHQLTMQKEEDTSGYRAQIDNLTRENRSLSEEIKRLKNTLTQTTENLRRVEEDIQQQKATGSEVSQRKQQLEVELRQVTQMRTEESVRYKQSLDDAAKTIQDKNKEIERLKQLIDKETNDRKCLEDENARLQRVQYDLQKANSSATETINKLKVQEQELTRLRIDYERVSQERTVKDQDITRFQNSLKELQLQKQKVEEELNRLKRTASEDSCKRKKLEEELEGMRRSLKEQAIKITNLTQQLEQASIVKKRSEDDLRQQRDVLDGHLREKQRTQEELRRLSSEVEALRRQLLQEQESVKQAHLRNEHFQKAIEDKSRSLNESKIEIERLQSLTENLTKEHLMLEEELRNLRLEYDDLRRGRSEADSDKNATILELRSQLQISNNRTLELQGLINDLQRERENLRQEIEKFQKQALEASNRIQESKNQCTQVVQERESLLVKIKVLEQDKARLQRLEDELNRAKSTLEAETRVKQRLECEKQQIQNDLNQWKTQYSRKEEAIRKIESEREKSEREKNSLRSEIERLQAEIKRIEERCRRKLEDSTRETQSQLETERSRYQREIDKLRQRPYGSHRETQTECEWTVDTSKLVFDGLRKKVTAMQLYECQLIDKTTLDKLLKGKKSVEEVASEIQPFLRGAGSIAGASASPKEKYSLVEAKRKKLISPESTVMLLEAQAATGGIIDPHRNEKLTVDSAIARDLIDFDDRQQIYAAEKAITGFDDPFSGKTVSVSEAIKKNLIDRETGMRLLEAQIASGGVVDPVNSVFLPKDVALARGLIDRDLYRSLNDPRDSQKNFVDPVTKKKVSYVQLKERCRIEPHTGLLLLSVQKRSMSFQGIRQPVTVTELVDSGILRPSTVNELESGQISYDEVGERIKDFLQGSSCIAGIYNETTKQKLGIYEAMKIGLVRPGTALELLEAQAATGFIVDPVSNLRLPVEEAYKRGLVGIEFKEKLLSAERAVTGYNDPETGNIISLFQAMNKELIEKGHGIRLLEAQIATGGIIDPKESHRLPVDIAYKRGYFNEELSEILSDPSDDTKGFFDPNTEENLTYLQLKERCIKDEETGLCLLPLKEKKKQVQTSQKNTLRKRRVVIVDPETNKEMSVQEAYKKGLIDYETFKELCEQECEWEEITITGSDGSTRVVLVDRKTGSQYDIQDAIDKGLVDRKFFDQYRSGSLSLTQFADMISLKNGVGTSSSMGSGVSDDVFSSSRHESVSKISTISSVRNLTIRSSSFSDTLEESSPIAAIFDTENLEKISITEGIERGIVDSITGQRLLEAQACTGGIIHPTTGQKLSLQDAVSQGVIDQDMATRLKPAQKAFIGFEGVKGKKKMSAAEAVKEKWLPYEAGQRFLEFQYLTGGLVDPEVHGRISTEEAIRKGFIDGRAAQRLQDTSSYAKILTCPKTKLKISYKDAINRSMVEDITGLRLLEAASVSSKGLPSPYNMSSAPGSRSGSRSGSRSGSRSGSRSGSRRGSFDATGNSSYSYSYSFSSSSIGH

Legend:
Assay in all cases: co-IP; lysates of MCF7-KRT13 and HCC1954-shKRT13 cells; immunoprecipitation with anti-KRT13, anti-PG or anti-DSP antibody, Protein A/G PLUS-Agarose, 4 °C overnight, rinsed four times with cell lysis buffer; western blot
[1] = target: desmoplakin (DSP) (human (endogenous in MCF7 and HCC1954)) (UniProt P15924)
[2] = target: T1, plakoglobin (PG, γ-catenin) (human (endogenous in MCF7 and HCC1954)) (UniProt P14923)
T1 sequence: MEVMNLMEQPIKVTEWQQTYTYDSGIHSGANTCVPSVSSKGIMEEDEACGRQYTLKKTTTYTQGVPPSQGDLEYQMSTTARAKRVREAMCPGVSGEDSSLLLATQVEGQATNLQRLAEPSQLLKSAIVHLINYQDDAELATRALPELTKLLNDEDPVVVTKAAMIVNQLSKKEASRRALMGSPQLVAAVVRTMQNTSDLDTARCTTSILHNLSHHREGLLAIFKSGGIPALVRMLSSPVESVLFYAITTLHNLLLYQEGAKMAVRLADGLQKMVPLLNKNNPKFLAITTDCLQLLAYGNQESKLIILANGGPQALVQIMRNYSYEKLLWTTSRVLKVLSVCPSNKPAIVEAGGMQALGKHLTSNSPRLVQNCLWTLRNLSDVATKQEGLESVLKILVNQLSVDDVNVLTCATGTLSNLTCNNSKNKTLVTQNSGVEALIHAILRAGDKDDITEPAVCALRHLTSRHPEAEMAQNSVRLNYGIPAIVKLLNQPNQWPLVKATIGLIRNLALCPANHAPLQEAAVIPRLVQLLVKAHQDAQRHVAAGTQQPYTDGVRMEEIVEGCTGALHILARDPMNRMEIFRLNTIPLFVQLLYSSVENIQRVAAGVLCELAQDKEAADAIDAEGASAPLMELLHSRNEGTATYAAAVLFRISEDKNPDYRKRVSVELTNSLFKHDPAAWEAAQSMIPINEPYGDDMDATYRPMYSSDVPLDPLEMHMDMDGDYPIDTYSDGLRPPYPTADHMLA

[3] = target: T2, Keratin 13 (KRT13), overexpressed in MCF7 cells (MCF7-KRT13) (human) (UniProt P13646)
T2 sequence: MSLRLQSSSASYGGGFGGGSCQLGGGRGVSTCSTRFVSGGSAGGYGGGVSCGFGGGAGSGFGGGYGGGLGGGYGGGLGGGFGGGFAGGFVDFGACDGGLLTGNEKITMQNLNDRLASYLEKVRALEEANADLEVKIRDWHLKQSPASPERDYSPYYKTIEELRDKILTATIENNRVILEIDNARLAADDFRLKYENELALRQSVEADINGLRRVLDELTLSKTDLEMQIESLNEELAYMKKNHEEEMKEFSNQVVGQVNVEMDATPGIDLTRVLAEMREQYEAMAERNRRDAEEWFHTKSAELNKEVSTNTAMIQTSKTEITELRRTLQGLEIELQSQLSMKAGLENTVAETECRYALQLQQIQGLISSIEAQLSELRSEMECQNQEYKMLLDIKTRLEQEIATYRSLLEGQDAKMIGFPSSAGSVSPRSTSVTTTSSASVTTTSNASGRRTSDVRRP

[4] = target: T3, Keratin 13 (KRT13), endogenous in HCC1954 cells (human (endogenous in HCC1954)) (UniProt P13646)
T3 sequence: T2 sequence

binding [1]: binds
binding [2]: binds
B1: Keratin 13 (KRT13), endogenous in HCC1954 cells (protein, UniProt P13646 1-458)
chain: T2 sequence

binding [1]: binds
binding [2]: binds
B2: Keratin 13 (KRT13), overexpressed in MCF7 cells (MCF7-KRT13) (protein, UniProt P13646-1 1-458)
chain: T2 sequence

binding [3]: binds
binding [4]: binds
binding [1]: binds
B3: plakoglobin (PG, γ-catenin) (protein, UniProt P14923 1-745)
chain: T1 sequence
